Assay results taken from doi:10.1101/691097.

What was measured:
Experiment in all cases: EMSA
Details in all cases: protein in a lysate after overexpression
[1] = system: FLAG-Nv-NF-kB (Nematostella vectensis)
[2] = molecular target: T1, FLAG-Aq-RHD (Amphimedon queenslandica) (UniProt A0AAN0I883)
T1 sequence (looked up, limits assumed): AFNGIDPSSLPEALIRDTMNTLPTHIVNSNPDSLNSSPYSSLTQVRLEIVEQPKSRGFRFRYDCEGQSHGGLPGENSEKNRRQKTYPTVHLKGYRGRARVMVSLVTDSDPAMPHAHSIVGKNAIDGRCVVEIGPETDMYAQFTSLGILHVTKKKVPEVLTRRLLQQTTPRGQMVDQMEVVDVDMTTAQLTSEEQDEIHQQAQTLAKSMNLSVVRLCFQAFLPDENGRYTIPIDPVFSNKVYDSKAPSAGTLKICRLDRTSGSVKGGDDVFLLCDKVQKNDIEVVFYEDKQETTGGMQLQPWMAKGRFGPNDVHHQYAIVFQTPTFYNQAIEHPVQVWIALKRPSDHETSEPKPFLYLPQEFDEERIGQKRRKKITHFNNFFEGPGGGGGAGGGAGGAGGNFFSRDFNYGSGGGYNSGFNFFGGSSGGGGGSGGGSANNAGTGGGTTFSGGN

[3] = molecular target: T2, FLAG-Aq-NF-kB (full length) (Amphimedon queenslandica) (UniProt A0AAN0I883)
T2 sequence (looked up, limits assumed): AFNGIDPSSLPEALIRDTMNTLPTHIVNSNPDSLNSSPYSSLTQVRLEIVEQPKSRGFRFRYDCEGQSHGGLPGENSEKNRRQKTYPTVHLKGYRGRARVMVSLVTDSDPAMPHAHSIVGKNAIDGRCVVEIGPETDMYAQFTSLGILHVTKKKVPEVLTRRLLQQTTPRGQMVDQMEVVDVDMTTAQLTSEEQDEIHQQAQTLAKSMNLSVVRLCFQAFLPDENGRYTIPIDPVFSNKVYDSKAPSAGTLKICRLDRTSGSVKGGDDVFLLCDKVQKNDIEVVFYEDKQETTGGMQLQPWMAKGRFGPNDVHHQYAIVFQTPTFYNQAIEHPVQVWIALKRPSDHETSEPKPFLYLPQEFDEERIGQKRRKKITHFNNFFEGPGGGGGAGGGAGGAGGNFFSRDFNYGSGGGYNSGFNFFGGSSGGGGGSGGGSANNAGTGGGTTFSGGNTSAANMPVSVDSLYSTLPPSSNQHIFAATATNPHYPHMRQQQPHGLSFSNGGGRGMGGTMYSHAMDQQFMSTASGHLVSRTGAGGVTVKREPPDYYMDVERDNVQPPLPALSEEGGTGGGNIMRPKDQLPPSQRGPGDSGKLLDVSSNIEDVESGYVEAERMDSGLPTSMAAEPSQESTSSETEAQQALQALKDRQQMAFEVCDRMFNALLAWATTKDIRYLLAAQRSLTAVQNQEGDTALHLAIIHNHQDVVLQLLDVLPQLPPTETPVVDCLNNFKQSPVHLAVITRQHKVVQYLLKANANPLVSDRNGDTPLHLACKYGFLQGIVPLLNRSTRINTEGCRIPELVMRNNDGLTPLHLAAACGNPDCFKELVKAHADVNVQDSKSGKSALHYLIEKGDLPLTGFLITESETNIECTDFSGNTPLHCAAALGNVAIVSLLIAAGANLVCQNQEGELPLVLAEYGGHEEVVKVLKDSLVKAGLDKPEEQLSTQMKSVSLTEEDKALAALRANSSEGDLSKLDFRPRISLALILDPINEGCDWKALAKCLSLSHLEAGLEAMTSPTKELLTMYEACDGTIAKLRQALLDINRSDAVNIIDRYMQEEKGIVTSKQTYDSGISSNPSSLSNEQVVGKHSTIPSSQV

[4] = molecular target: T3, FLAG-Aq-Cterm (Amphimedon queenslandica) (UniProt A0AAN0I883)
T3 sequence (looked up, limits assumed): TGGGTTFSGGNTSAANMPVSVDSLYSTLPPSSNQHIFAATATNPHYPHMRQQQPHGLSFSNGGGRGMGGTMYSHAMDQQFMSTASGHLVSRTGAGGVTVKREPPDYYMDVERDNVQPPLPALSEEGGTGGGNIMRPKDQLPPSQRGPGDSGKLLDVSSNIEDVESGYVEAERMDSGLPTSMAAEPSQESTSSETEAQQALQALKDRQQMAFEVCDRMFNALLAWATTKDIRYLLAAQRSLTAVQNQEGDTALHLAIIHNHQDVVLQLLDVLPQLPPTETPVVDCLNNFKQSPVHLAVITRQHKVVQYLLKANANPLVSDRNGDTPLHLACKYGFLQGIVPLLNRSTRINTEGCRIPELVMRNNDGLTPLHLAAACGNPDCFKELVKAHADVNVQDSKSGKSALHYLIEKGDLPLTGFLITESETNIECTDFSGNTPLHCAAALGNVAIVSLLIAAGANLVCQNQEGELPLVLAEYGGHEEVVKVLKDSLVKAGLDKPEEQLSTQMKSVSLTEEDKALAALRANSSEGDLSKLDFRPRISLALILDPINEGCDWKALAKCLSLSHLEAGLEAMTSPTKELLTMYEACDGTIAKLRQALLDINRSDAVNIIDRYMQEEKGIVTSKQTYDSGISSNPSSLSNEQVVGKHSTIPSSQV

TCGAGAGGTCGGGGAATTCCCCCCCCG / TCGACGGGGGGGGAATTCCCCGACCTC [NF-kB-Consensus kB-site probe]
binding result [1]: binds
binding result [2]: binds
binding result [3]: binds
binding result [4]: no binding

At least one result comes from cells or an extract, where the contact may be indirect. For some of these results: Negatives hold for the conditions tested. For some of these results: Where a protein sequence is shown, tags need not be part of it. For some of these results: The exact form of at least one protein or probe is not confirmed.
